Earlier results, collected in patent publication US10607721B2, “High-throughput, multi-omics approach to determine and validate de novo global mechanisms of action for drugs and toxins” (Vanderbilt University, priority 2015, dated 2020).

System: A549 cells
Conditions: literature (Yang et al., 2013; Zhang et al., 2015); cited from earlier work

N.N.[Cl][Pt][Cl] [cisplatin]
IC50: 18 to 64 µM
